Experimental data reported in patent US20180209966A1, “FLUORESCENCE POLARIZATION IMMUNOASSAY METHOD FOR DETECTING CARBARYL” (priority 2017, published 2018).

Assay: recovery rate after adding carbaryl to the strawberry matrix (FPIA)
Conditions: n = 3

## CNC(=O)Oc1cccc2ccccc12 [carbaryl]
Added 50 μg/kg
  Recovered: 49.2 µg/kg
Added 100 μg/kg
  Recovered: 105.6 µg/kg
Added 200 μg/kg
  Recovered: 180.5 µg/kg
